# Measurements published in PubChem BioAssay AID493014 (National Center for Advancing Translational Sciences (NCATS), 2011).
# Among all 340,000 compounds or so, about 170 (0.05%) were called active. The shares of active, inactive and inconclusive entries below differ from those in the screen. Calls follow the shape of the dose curve; as a rule, active = well fitted inhibition curve with a large enough effect in the signal ratio, with a control signal flat (not every such curve was filed as active); inconclusive = small, poorly fitted or top-dose-only effect, or effect the other way, or a change in a side signal; inactive = flat fitted curve, though single readings scatter; the % refers to the signal ratio. Where the call is inconclusive, the potency comes from a doubtful curve fit.
# Experiment: qHTS Assay to Find Inhibitors of Chronic Active B-Cell Receptor Signaling;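 as to activity change, negative = inhibition: plate controls were basal doxycycline-induced cells for no effect and cells given 10 µM MG132 for full effect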
# Settings: ABC-DLBCL IkBa-CBG/CBR reporter, luminescence ratio (green luciferase fused to IkBa over red control in TMD8 lymphoma cells), 4 h; activity change, negative = inhibition: at 46.1 µM (top of the series) unless noted
# In short: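 Concentration-response series (up to 46 uM) were applied to TMD8 dual-reporter cells for 4 h at 37C with doxycycline. Green/red ratio, after filter-overlap correction, defined %Activity; red signal alone was normalised to basal cells and zero luminescence.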
# Potency is read from the fitted curve at half-maximal effect.
SMILES,"activity change, negative = inhibition",Potency
COc1cc(NC(=O)c2cccnc2Sc2ccc(C)c(C)c2)cc(OC)c1OC,inconclusive: -9.57%,
CC(Oc1ccccc1Cl)C(=O)N(Cc1cccs1)C1CCS(=O)(=O)C1 (configuration not stated),inactive,
COc1cc(OC)c(C(=O)CCC(=O)O)cc1OC,inactive,
O=S(=O)(c1ccc2ccccc2c1)N1C=CC(C(F)(F)F)=NCC1,inconclusive: 3.01%,
COc1cccc(CNC(=O)C2Cc3ccccc3CN2C(C)=O)c1 (configuration not stated),inactive,
Cc1ccc(-c2cc(-c3ccccc3)nc(N(C)N)n2)cc1,inactive,
O=C(O)Cc1sc(Nc2ccccc2)nc1-c1cccs1,inconclusive: -8.17%,
COC(=O)C1C(O)=C(C(C)=Nc2cccc3ccccc23)C(=O)CC1(C)C (configuration not stated),inconclusive: 4.49%,
Cc1c(C(=O)N2CCCc3ccccc32)sc2nc(-c3ccccc3)cn12,inconclusive: 3.79%,
CCc1ccc(OCC(=O)NC(=S)Nc2ccc(C(C)=O)cc2)c(Br)c1,inconclusive: 1.34%,
O=C(CSc1ncc(-c2ccccc2)[nH]1)Nc1ccccc1F,inconclusive: 10.6%,
C=CCN(C(=O)COc1ccccc1)c1nnc(-c2ccncc2)s1,inactive,
COc1ccc(/C=C/C(=O)c2c(O)c(OC)c3occc3c2OC)cc1,,"inconclusive: 8.91 µM [falling, partial curve]"
CCc1nnc(N/N=C/c2ccc(O)c(OC)c2)n1N,,"inconclusive: 35.5 µM [falling, single point]"
COc1cc(NC(=O)c2ccco2)c(OC)cc1NC(=O)Nc1ccccc1Cl,inconclusive: 10.2%,
Cc1ccccc1NC(=S)NC(C)CCc1ccccc1 (configuration not stated),inactive,
Cc1cc(C(=O)COC(=O)c2ccc(N)c([N+](=O)[O-])c2)c(C)n1-c1ccc2c(c1)OCO2,,"inconclusive: 3.26 µM [falling, partial curve, poor fit]"
O=C(/C=C/c1ccco1)N1CCCC(c2ccccc2)C1 (configuration not stated),inconclusive: -0.856%,
S=c1[nH]nc(COc2ccc3ccccc3c2)o1,,"inconclusive: 5.17 µM [falling, single point]"
COCCn1cc(C(=O)c2ccccc2OCC(=O)Nc2cc(C)on2)cc(C#N)c1=O,inconclusive: -1.42%,
O=C(Nc1ccc(-c2nnn(CC(=O)N3CCN(C(=O)c4ccco4)CC3)n2)cc1)c1ccccc1F,,"inconclusive: 15.8 µM [falling, partial curve, poor fit]"

SMILES,"activity change, negative = inhibition",Potency
Cc1cccc2c1NC1(CCCC1)CC2C (configuration not stated),inactive,
COc1ccc(C(=O)OC(C)CN2CCOCC2)cc1OC (configuration not stated),inconclusive: 5.4%,
COc1cccc2cc(-c3nnc(-c4ccccc4)o3)c(=O)oc12,,"inconclusive: 35.5 µM [rising, partial curve]"
Cc1oc(-c2ccc(Cl)cc2)nc1CN1CCC(C(=O)NCCCN2CCOCC2)CC1,inconclusive: -18.7%,
Clc1cc(Cl)c(OCc2nc(-c3ccccn3)no2)cc1Cl,inactive,
O=C(NCCCN1CCOCC1)c1ccc2nc(Cc3ccccc3F)oc2c1,inactive,
COC(=O)Cc1ccc(NC(=S)NNC(=O)c2ccccc2Br)cc1,,"inconclusive: 6.51 µM [falling, partial curve]"
O=C(O)CCC(=O)Nc1ccccc1C(=O)NCc1ccco1,inconclusive: 13.2%,
COc1ccc(CNCCc2ccc(Cl)cc2)cc1OCc1ccccc1,inconclusive: -36.8%,
COc1ccc(S(=O)(=O)Nc2cc(Cl)ccc2OC)cc1,,"inconclusive: 31.6 µM [falling, partial curve, poor fit]"
C=CCn1c(SCc2ccc(Br)cc2F)nc2cc(C(=O)O)ccc2c1=O,,"inconclusive: 0.794 µM [rising, partial curve, poor fit]"
Cc1cc(/C=N/NC(=O)c2nn(C)cc2Cl)c(C)n1-c1cccc(Br)c1,,"inconclusive: 14.6 µM [falling, single point]"
CC(=O)c1ccccc1OC(=O)c1c(F)cccc1F,inconclusive: 1.25%,
CN(CC(=O)NC(=O)NCc1ccco1)Cc1nc2ccccc2c(=O)[nH]1,inactive,
CCOc1ccc(S(=O)(=O)NCc2cccnc2)cc1C(C)C,inactive,
Cc1nc(NCCNC(=O)c2ccco2)c2c(C)c(C)sc2n1,inactive,
O=C(CNc1ccccc1F)Nc1cccc(S(=O)(=O)N2CCCCC2)c1,inconclusive: 0.54%,
O=C(NC(=S)N1CCN(Cc2ccc3c(c2)OCO3)CC1)c1cccc(Br)c1,inactive,
CC1CCN(Cc2cc(=O)oc3ccc4ccccc4c23)CC1,inconclusive: 10.6%,
CN(C)c1cc(-c2ccccc2)nc(-c2ccccc2)n1,inactive,
COc1ccc(-c2csc(NC(C)=O)n2)cc1OC,inconclusive: 27.6%,

SMILES,"activity change, negative = inhibition",Potency
CCOC(=O)C1(Cc2cccc(Cl)c2)CCCN(C(=O)c2cn[nH]c2)C1 (configuration not stated),inactive,
CCCCn1c2c(c(=O)n(C)c1=O)C(c1ccc(OC)cc1)N1CCCCCC1=N2 (configuration not stated),inconclusive: 6.67%,
COC(=O)c1cc(=O)nc2sccn12,inconclusive: -6.89%,
Cc1cc(Cl)ccc1OCC(O)CNCCc1ccc(S(N)(=O)=O)cc1 (configuration not stated),inconclusive: -13.9%,
CC(/C=C1\NC(=S)NC1=O)=C\c1ccccc1,,"inconclusive: 15.8 µM [falling, partial curve, poor fit]"
CC[C@H](C)[C@H](NS(=O)(=O)c1ccc(C)cc1)C(=O)N1CCC(C(=O)N[C@@H](C)C(=O)O)CC1,inconclusive: 3.17%,
C[C@H](CO)N1C[C@H](C)[C@@H](CN(C)Cc2ccc(Cl)c(Cl)c2)Oc2c(NC(=O)CCC(F)(F)F)cccc2C1=O,inconclusive: -5.07%,
CCCCOc1ccc(Cl)cc1CSc1nnc(C)n1N,inconclusive: -4.92%,
O=c1c2ccccc2oc2ccc(NCCCN3CCOCC3)cc12,inconclusive: 27.6%,
Cc1ccc(C(=O)Nc2ccccc2)cc1S(=O)(=O)Nc1ccc(Cl)cn1,,"inconclusive: 35.5 µM [falling, single point]"
Cc1cc(-n2c(SCc3ccccc3F)nc3[nH]ncc3c2=O)ccc1Cl,inconclusive: 5.39%,
CCc1ccc2c(c1)C1(NN=C(c3ccccc3)S1)C(=O)N2 (configuration not stated),,"inconclusive: 29.1 µM [falling, single point]"
CCOc1cc(N2CCOCC2)c(OCC)cc1NC(=O)c1c(C)noc1C,inconclusive: 2.02%,
CCCN1CC(=O)N2Cc3[nH]c4ccccc4c3C[C@H]2C1=O,inconclusive: 2.29%,
Cc1ccc(C(=O)NC2CCCCCCC2)cc1S(=O)(=O)N1CCOCC1,inconclusive: -5.41%,
COc1ccccc1CCNS(=O)(=O)CCNC(=O)c1ccc2c(c1)OCO2,inconclusive: -2.26%,
O=c1c(C/C=C/c2ccccc2)c(O)ccn1CCc1c[nH]c2ccccc12,inconclusive: -9.25%,
CN(C)S(=O)(=O)c1cccc(NC(=O)c2cc3c(cc2Cl)N2CCCCCC2=NS3(=O)=O)c1,inconclusive: -4.86%,
CCCc1nc2sc(C(=O)OCC)c(N)c2c2c1COC(C)(C)C2,inconclusive: 9.26%,
C=C(C)C1Cc2c(C)nn(-c3nc(C)cc(C)n3)c2C1 (configuration not stated),,"inconclusive: 12.6 µM [falling, single point]"
Cc1ccc(NC(=O)C2CCN(S(=O)(=O)c3cccs3)CC2)cc1C,,"inconclusive: 10.3 µM [rising, partial curve, poor fit]"

# Quoted at random: 3 records from the list, in no set order.
SMILES,"activity change, negative = inhibition",Potency
COc1cc(NC(=O)c2cccnc2Sc2ccc(C)c(C)c2)cc(OC)c1OC,inconclusive: -9.57%,
O=C(O)Cc1sc(Nc2ccccc2)nc1-c1cccs1,inconclusive: -8.17%,
COc1cc(NC(=O)c2ccco2)c(OC)cc1NC(=O)Nc1ccccc1Cl,inconclusive: 10.2%,

# (more compounds)

SMILES,"activity change, negative = inhibition",Potency
COc1ccc(/C=N/NC(=O)c2ccc(COc3cccc4cccnc34)cc2)cc1OC,inconclusive: -23.1%,
C/C(=N\NC(=O)c1cc(C(C)C)[nH]n1)c1ccco1,,"inconclusive: 18.4 µM [falling, partial curve]"
O=[N+]([O-])c1ccc(Cl)c(/C=N/N2CCN(Cc3ccccc3Cl)CC2)c1,inactive,
Cn1c(CCCOc2ccc(Cl)cc2Cl)nnc1SCC(=O)Nc1nccs1,inactive,
Cc1cccc(C(=O)NC2CCN(CC(=O)NCc3cccs3)CC2)c1,inconclusive: -12.8%,
Cc1n[nH]c(C)c1CCCOc1ccccc1,inconclusive: -15%,
Cc1ccc(-c2nc3ccccc3n3c(C)nnc23)cc1,inconclusive: 4.39%,
Cc1cc2cc(OCC(=O)O)ccc2n1C,,"inconclusive: 4.11 µM [falling, partial curve, poor fit]"
CC(Sc1cccc[n+]1[O-])C(=O)NC1CCCCC1C (configuration not stated),inconclusive: 1.17%,
COCCn1c(=O)[nH]c(=O)c2c(C(F)(F)F)cc(-c3cccs3)nc21,inconclusive: 9.7%,
COc1ccc(CNC(=O)CN(c2ccc(C(C)=O)cc2)S(=O)(=O)c2ccc(C)cc2)cc1OC,inconclusive: 1.68%,
COc1ccccc1CNC(=O)c1cc(S(=O)(=O)N2CCCC2)cn1C,inactive,
O=C(Nc1ccccc1C(=O)Nc1ccc2c(c1)OCO2)c1ccco1,inconclusive: -19.2%,
COc1ccccc1C(=O)Nc1ccc2c(c1)nc1n2CCSC1,,"inconclusive: 15.8 µM [falling, single point]"
CCC(Cc1ccccc1)NS(=O)(=O)c1ccc2c(c1)NC(=O)C(C)S2 (configuration not stated),inconclusive: 4.06%,
COc1cc2sc(-c3ccc(S(C)(=O)=O)cc3)c(C(=O)NCCCCO)c2cc1OC,inconclusive: 1.65%,
O=C(NC(Nc1nc2ccc([N+](=O)[O-])cc2s1)(C(F)(F)F)C(F)(F)F)c1cccnc1,,"inconclusive: 1.46 µM [rising, partial curve, poor fit]"
CC1=CC(=NOC(=O)/C=C/c2ccccc2)C=C(C)C1=O,,"inconclusive: 25.1 µM [falling, single point]"
O=C(c1ccncc1)c1ccc(NS(=O)(=O)c2ccc(Br)s2)cc1,inconclusive: -0.691%,
